# Assay results

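GFP-tagged normal-ribosome E. coli mixed with an RFP-tagged h34 humanized strain, with green signal taken as growth after 24 hours.
The value is the change in activity at the highest dose tested; more negative means stronger inhibition.
Active requires GFP to fall at least twice as much as RFP with growth loss below a set limit; inconclusive means no clear call; everything else is inactive.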

These entries are mostly ones the record files as inconclusive; other results of the assay are not listed here.

COc1ccc(Cc2c(-c3cccc(Cl)c3)nc3ccc(Cl)cn23)c(C)c1 [at 50 µM (top of the series)] read activity change 36.71 (inconclusive).
CCC1CCCCN1C(=O)CSc1nnc(-c2cccc(Cl)c2)o1 (centres undefined) [at 50 µM (top of the series)] read activity change -48.61 (inconclusive).
CC1(CCC(=O)N2CCCC(N3CCN(c4ccc(F)cc4)CC3)C2)CC1 (centres undefined) [at 50 µM (top of the series)] read activity change 20.98 (inconclusive).
CN(Cc1c(F)cccc1Cl)C(=O)c1ccc(NS(=O)(=O)c2ccc3[nH]c(=O)[nH]c3c2)cc1 [at 50 µM (top of the series)] read activity change 18.69 (inconclusive).
O=C(Nc1ccccc1F)N1CCCCN2[C@@H](CO)[C@H](c3ccc(C#Cc4cccnc4)cc3)[C@@H]2C1 [at 50 µM (top of the series)] read activity change -1.036 (inconclusive).
CN(C)C(=O)c1cccc(-c2ccc(C3[C@H]4CNC[C@@H]3N4S(=O)(=O)c3ccccc3F)cc2)c1 (some centres undefined) [at 50 µM (top of the series)] read activity change 6.351 (inconclusive).
Brc1ccccc1Cn1c(-c2cncs2)nc2ccccc21 [at 50 µM (top of the series)] read activity change -10.01 (inconclusive).
CCOC(=O)c1sc(NC(=O)CN2CCN(c3ccccc3)CC2)nc1C [at 50 µM (top of the series)] read activity change -1.748 (inconclusive).
COc1cc(NC(=O)COC(=O)CC(C)(C)C)c(C)cc1[N+](=O)[O-] [at 50 µM (top of the series)] read activity change 35.7 (inconclusive).
Cc1nn(S(=O)(=O)c2ccc(Cl)cc2)c(C)c1Sc1ccc([N+](=O)[O-])cc1 [at 50 µM (top of the series)] read activity change 21.39 (inconclusive).
Cc1nn2c(NCc3ccccn3)cc(C(C)C)nc2c1-c1ccccc1 [at 50 µM (top of the series)] read activity change 6.192 (inconclusive).
C[C@H]1CCCCO[C@H](CN(C)C(=O)CCCN(C)C)[C@@H](C)CN([C@@H](C)CO)C(=O)c2cc(NC(=O)Nc3cccc4ccccc34)ccc2O1 [at 50 µM (top of the series)] read activity change 29.09 (inconclusive).
O=C(c1cc(COc2c(F)cccc2F)on1)N1C[C@H]2CC[C@H]1C2 [at 50 µM (top of the series)] read activity change -1.607 (inconclusive).
O=C(Nc1ccc(Br)cc1)c1cccnc1N1CCCCC1 [at 50 µM (top of the series)] read activity change 12.2 (inactive).
CCNc1nc(N)c(C(=O)C23CC4CC(CC(C4)C2)C3)s1 [at 50 µM (top of the series)] read activity change 19.13 (inactive).
CC(C)CCn1c(N)c(C(=O)NCc2cccs2)c2nc3ccccc3nc21 [at 50 µM (top of the series)] read activity change 78.87 (inconclusive).
COc1ccc(-n2ccnc2SCC(=O)NCc2ccccc2)c(OC)c1 [at 50 µM (top of the series)] read activity change 29.76 (inconclusive).
CS(=O)(=O)N(CC(=O)N1CCc2ccccc2C1)c1ccc(Br)cc1 [at 50 µM (top of the series)] read activity change 23.87 (inconclusive).
CN1CCN(CC(=O)c2cc(C(C)(C)C)c(O)c(C(C)(C)C)c2)CC1 [at 50 µM (top of the series)] read activity change -25.35 (inconclusive).
Cc1ccc(S(=O)(=O)Nc2ccc3c(c2)C(=O)N([C@H](C)CO)C[C@@H](C)[C@H](CN(C)C(=O)c2ccccc2)OCCCC[C@@H](C)O3)cc1 [at 50 µM (top of the series)] read activity change 12.06 (inconclusive).
O=C(NCCc1ccccn1)c1cccc(S(=O)(=O)N2CCc3ccccc32)c1 [at 50 µM (top of the series)] read activity change 34.04 (inconclusive).
Cn1c(=O)c2c(-c3ccccc3)n(-c3cc([N+](=O)[O-])ccc3N)cc2n(C)c1=O [at 50 µM (top of the series)] read activity change 3.31 (inconclusive).
CCn1ncc(Br)c1C(=O)Nc1ccc2c(c1)OCCO2 [at 50 µM (top of the series)] read activity change 9.248 (inconclusive).

The first 2 entries again:

Result for COc1ccc(Cc2c(-c3cccc(Cl)c3)nc3ccc(Cl)cn23)c(C)c1 [at 50 µM (top of the series)] was activity change 36.71 (inconclusive).
Result for CCC1CCCCN1C(=O)CSc1nnc(-c2cccc(Cl)c2)o1 (centres undefined) [at 50 µM (top of the series)] was activity change -48.61 (inconclusive).

From PubChem BioAssay record AID977624 (Broad Institute, 2014).